From PubChem BioAssay AID2685 (National Center for Advancing Translational Sciences (NCATS), 2010) come the findings set out here.

Molecules are shown by their SMILES. This is one part of the list. The main result of the screen is listed elsewhere. These columns were measured beside it and carry no call. The list favours compounds with an active or inconclusive main result. Words in brackets tell the shape of the fitted curve; partial curves, single points and poor fits give uncertain potencies.

A short description of this assay: qHTS Assay for Lipid Storage Modulators in Drosophila S3 Cells.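 On cell number change: cells counted by Cell Tracker Red CMTPX staining in the red channel.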 The note with it: BODIPY lipid droplet fluorescence, 18-24 h; for cell number change: measured here: cell count max response, cells fed with added oleic acid. Put shortly:
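Laser-scanning cytometry quantifies lipid droplet accumulation (500–530 nm total intensity; droplet/cell object ratio) in oleic acid-fed (400 uM added) Drosophila S3 cells treated with a concentration series. 20 uM Triacsin C defined 100% inhibition.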

Where [1] appears, read: measured here: cell number channel AC50, cells fed with added oleic acid.
The mark [2] stands for this setting: measured here: lipid fluorescence (Fed channel) AC50, cells fed with added oleic acid.

Regarding `COc1cc2c(C(=O)O)c(C)n(C)c2cc1Br`, the cell number change worked out at 35%. Under setting [1], the AC50 is 2.06 µM [falling, single point]. For the same compound, the AC50 under setting [2] is 6.51 µM [falling, single point].

Take `O=[N+]([O-])[N-][n+]1cnn(Cc2ccc(Cl)cc2)c1`: the cell number change was 12.4%. In addition, the AC50 under setting [1] is 6.51 µM [falling, single point]. Besides, the concentration at half-maximal activity (AC50) under setting [2] is 4.11 µM [falling, single point].

Turning to `C=CCC1(CN2CCCC2=O)C(=O)NC(=O)NC1=O`, the cell number change was determined as 1.15%.

In the case of `COc1ccc(C2(C#N)CC[N+](C)(C)CC2)cc1`, the cell number change is 28.3%. For the same compound, the AC50 under setting [2] is 3.66 µM [falling, single point].

`CCCOC(=O)Nc1ccc([As](=O)(O)O)cc1NC(=O)OCCC`: the cell number change is -37.2%. Also, the AC50 under setting [1] was 4.61 µM [falling, full curve, poor fit]. For the same compound, the AC50 under setting [2] was 4.61 µM [falling, full curve].

As for `CCC(C(=O)N1CCC2(CC1)OCCO2)n1c2ccccc2c2nc(=O)cc(C)n21` (configuration not stated), the cell number change was found to be 18.9%. Besides, the AC50 under setting [2] was 29.1 µM [falling, single point].

For the compound `CCOc1ccccc1N=C1SCCCN1C`, the cell number change turned out to be 2.55%. Moreover, under setting [2], the AC50 was 0.116 µM [falling, full curve].

`O=C(COC(=O)Cc1ccccc1)Nc1ncc(Cl)cc1Cl`: the cell number change was -5.62%.

As to `N=C1c2ccccc2CN1c1ncccn1`, the cell number change was -7.47%. Besides, under setting [1], the half-maximal activity concentration (AC50) is 0.517 µM [falling, full curve]. Under setting [2], the AC50 was 1.84 µM [falling, partial curve].

For the compound `O=C(C1CCN(S(=O)(=O)c2ccccc2)CC1)N1CCC2(CC1)OCCO2`, the cell number change was -38.9%. Moreover, the AC50 under setting [1] was 29.1 µM [falling, single point]. Moreover, the concentration at half-maximal activity (AC50) under setting [2] was 29.1 µM [falling, single point].

In the case of `CC(C)CCOP(N)(=O)Oc1ccccc1` (configuration not stated), the cell number change was 19.4%.

Consider `O=c1[nH]c(=O)n(CCc2ccc(F)cc2)c(O)c1/C=N/N1CCCCC1`, for which the cell number change is -4.21%.

Turning to `CCOc1ccc(CN2CCN(C(=O)Cc3ccccc3)CC2)cc1`, the cell number change is 20.7%. Besides, the AC50 under setting [2] is 29.1 µM [rising, single point].

For the compound `COc1ccc(CN2CC=C(c3ccc(F)cc3)CC2)cc1Br`, the cell number change is -0.246%.

Take `O=C(NC12CC3CC(CC(C3)C1)C2)OC1CN2CCC1CC2` (configuration not stated): the cell number change worked out at 8.09%. For the same compound, the AC50 under setting [2] is 7.31 µM [falling, single point].

Turning to `O=P(Nc1cccnc1)(Oc1ccccc1Cl)Oc1ccccc1Cl`, the cell number change was -19.1%. In addition, the AC50 under setting [1] was 0.082 µM [falling, full curve, poor fit].

In the case of `Clc1ccc2[nH]c3c(c2c1)CCNC3`, the cell number change was -13.5%. Moreover, the concentration at half-maximal activity (AC50) under setting [2] was 29.1 µM [falling, single point].

As to `CC(=O)OC1C2CCCC1C(N1CCCC1)CC2` (configuration not stated), the cell number change is -3.86%.

Turning to `Cc1ccc(CN2CCSc3ccc(C(=O)N4CCC5(CC4)OCCO5)cc32)cc1`, the cell number change is -12.2%. Moreover, the AC50 under setting [2] was 0.82 µM [falling, full curve, poor fit].

As for `COC(=O)C1=C(c2ccc(F)cc2F)C[C@@H]2CC[C@H]1N2C(=O)NC1Cc2ccccc2C1`, the cell number change was -13.9%. The AC50 under setting [2] was 0.58 µM [rising, partial curve].

`C/C(=N\Nc1ccccc1)c1c(O)[nH]c(=O)[nH]c1=O`: the AC50 under setting [2] was 23.1 µM [rising, single point].

On to `CN(C(=O)Oc1ccc([N+](=O)[O-])cc1)c1ccccc1`, for which the cell number change was -54.6%. The half-maximal activity concentration (AC50) under setting [1] was 7.31 µM [falling, single point]. Besides, under setting [2], the AC50 is 8.2 µM [falling, single point].

Take `Cn1cc(C(=O)OCC(=O)N2CCCC2)c2ccccc21`: the cell number change stood at 14.9%.

Take `CCOc1ccc2[nH]c(=O)c(CN(CCO)C3(c4nnnn4C4CCCCC4)CCCCC3)cc2c1`: the cell number change is 9.85%. Besides, under setting [1], the AC50 was 3.66 µM [rising, single point].

As for `COC(=O)C1=C(c2ccc(F)cc2OCc2ccccc2)C[C@@H]2CC[C@H]1N2C(=O)NCCCc1ccccc1`, the cell number change came out at 5.22%. Under setting [2], the AC50 is 0.0231 µM [rising, full curve, poor fit].

For `COc1ccccc1CC1/C(=N/O)C2CCN1CC2` (configuration not stated), the cell number change was -8.96%. Further, the AC50 under setting [1] was 5.8 µM [falling, partial curve, poor fit].

On to `O=C1NC(=O)C(C(CC(=O)c2ccccc2)c2ccccc2)C(=O)N1` (configuration not stated), for which the cell number change is -17.1%. For the same compound, the AC50 under setting [2] is 0.651 µM [falling, full curve, poor fit].

Turning to `Cc1cccnc1-n1c(CN2C(=O)c3ccccc3C2=O)nc2ccccc2c1=O`, the cell number change came out at 0.259%.

For `CNC(=O)Oc1cccc2ccccc12`, the cell number change is -5.13%. Under setting [2], the AC50 was 0.517 µM [falling, single point].

Turning to `COC(=O)C(C)Oc1cc(C)cc2oc(=O)c3c(c12)CCC3` (configuration not stated), the AC50 under setting [2] is 20.6 µM [falling, single point].

For `Cc1ccc(CS(=O)(=O)CCC(=O)N2CCC3(CC2)OCCO3)cc1`, the cell number change is -85.2%. The AC50 under setting [1] is 23.1 µM [falling, partial curve]. Further, under setting [2], the AC50 is 25.9 µM [falling, partial curve].

For `Cc1ccccc1-n1c(O)c(C(c2ccncc2)c2c(O)n(-c3ccccc3C)c(=O)[nH]c2=O)c(=O)[nH]c1=O`, the cell number change is 1.99%. For the same compound, under setting [2], the AC50 is 0.651 µM [falling, single point].

Regarding `CN1/C(=C\C=Nc2ccccc2)C(C)(C)c2ccccc21`, the cell number change was -73.7%. Moreover, the half-maximal activity concentration (AC50) under setting [1] is 20.6 µM [falling, single point]. Also, the concentration at half-maximal activity (AC50) under setting [2] was 29.1 µM [falling, single point].

Regarding `CCN1CCN(C(=O)COc2ccc(S(=O)(=O)N3CCOCC3)cc2C)CC1`, the cell number change is -22.9%. The AC50 under setting [1] is 1.64 µM [falling, full curve, poor fit].

For `O=C(CN1CCCCC1)Nc1ccc(Br)cc1C(=O)c1ccccc1Cl`, the cell number change turned out to be 26.9%. Also, the concentration at half-maximal activity (AC50) under setting [2] is 18.4 µM [rising, single point].

On to `COC(=O)C1=C(c2ccc(-c3ccccc3)c(F)c2)C[C@@H]2CC[C@H]1N2C(=O)NCCOc1ccc(OC)cc1`, for which the cell number change is -11.6%. Also, under setting [2], the AC50 is 29.1 µM [falling, single point].

As for `COc1ccc(-n2c(-c3ccccc3)nc3ccccc3c2=O)cc1`, the AC50 under setting [2] was 29.1 µM [falling, single point].

Consider `O=S(=O)(NC1CN2CCC1CC2)c1ccc(Cl)cc1` (configuration not stated), for which the cell number change was determined as 10.9%. In addition, the AC50 under setting [2] is 6.51 µM [falling, single point].

Take `CCCCn1c(O)c(C(C)=Nc2c(C)n(C)n(-c3ccccc3)c2=O)c(=O)[nH]c1=O`: the cell number change was found to be 2.55%.

In the case of `COC(=O)C1=C(c2ccc(Cl)c(C(F)(F)F)c2)C[C@@H]2CC[C@H]1N2C(=O)NCCOc1ccccc1Cl`, the cell number change was -46%. Besides, under setting [1], the AC50 is 0.0651 µM [falling, full curve]. For the same compound, under setting [2], the AC50 is 2.91 µM [falling, full curve].
